The other results are listed elsewhere or left out.

Protein sequences, listed by entry. Tags and fused reporters are not part of them.
UniProt Q0JBA9, entry or part of it: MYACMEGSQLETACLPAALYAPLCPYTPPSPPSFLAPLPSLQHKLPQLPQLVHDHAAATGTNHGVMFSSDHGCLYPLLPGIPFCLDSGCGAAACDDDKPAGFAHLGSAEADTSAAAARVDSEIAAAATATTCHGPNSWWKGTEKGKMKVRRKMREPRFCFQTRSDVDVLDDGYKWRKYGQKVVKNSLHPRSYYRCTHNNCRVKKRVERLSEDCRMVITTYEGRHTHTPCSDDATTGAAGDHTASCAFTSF

The assay deals with OsWRKY34 (Oryza sativa, UniProt Q0JBA9 1-250). Kind of assay: protein-binding microarray (RPBM); PBS, 2% BSA, 51.3 ng/ul salmon testes DNA, 50 uM zinc acetate, 200 nM TF, 25 C, 1 h; high values mean tight binding. The note with it: protein: recombinant; tags: N-terminal polyhistidine and DsRed monomer fusion (pET32a); label: CyDye5-dUTP incorporated in the synthesized complementary strand; 3' TTTTT single-stranded linker to array surface; dsDNA, one strand shown. In short, it runs like this:
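Binding signal is defined as the fluorescence intensity of each feature in arbitrary units, read on an Axon 4000B scanner. Transcription factors with N-terminal polyhistidine and DsRed fusions came from E. coli BL21-CodonPlus and were purified on Ni–NTA. They were incubated at 200 nM for 1 h at 25 °C on a custom Agilent array that had been made double-stranded with Cy5-dUTP, with 50 µM zinc acetate present, and the array was washed.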
Regarding “TTCCATTCTACAGGGGTCGTATTTTCAGTCACCTCAATTCCGGAGTCACCTAGTGCAG”, the binding signal is 8720 fluorescence intensity (a.u.).

“CCGTCGCTCCACCTTGGGTCATGCTATCGCTCTGTCTTGACGGAGTCACCTAGTGCAG”: the binding signal is 10300 fluorescence intensity (a.u.).

Take “CCACCATCATTTTTTTTAAAAAAACTCAACAACGTTCACCCGGAGTCACCTAGTGCAG”: the binding signal is 8990 fluorescence intensity (a.u.).

With “ACAATTGCCGCGGTTCCTCCTCACCGTCTTCTCGTTCCACCGGAGTCACCTAGTGCAG”, the binding signal was 8450 fluorescence intensity (a.u.).

As for “CATTTGCGTGCCTGATTAATCCTCTCGTCATCTCACCTCACGGAGTCACCTAGTGCAG”, the binding signal was 9110 fluorescence intensity (a.u.).

On to “GCGGGTCGACACCAGTCGCGGTCATAGCCTCACCGTCCATCGGAGTCACCTAGTGCAG”, for which the binding signal is 8150 fluorescence intensity (a.u.).

As to “AATAAAGTTGGGTGGTTGGGGCGCGCGATAGGAGTAAATCCGGAGTCACCTAGTGCAG”, the binding signal was 17400 fluorescence intensity (a.u.).

Consider “CCGTCTCTGTCCGTACTCACCACCACCAACGCTGTGCACCCGGAGTCACCTAGTGCAG”, for which the binding signal is 10300 fluorescence intensity (a.u.).

For the sequence “GGAGCACCGCCCACCGCTCGTCCCCACCGCGGCCGGTGCCCGGAGTCACCTAGTGCAG”, the binding signal is 8340 fluorescence intensity (a.u.).

In the case of “CCTTAGGTCTCTCACAGTGCAGCGTTCTCTTATCCCATTCCGGAGTCACCTAGTGCAG”, the binding signal is 8320 fluorescence intensity (a.u.).

Regarding “CATTCGCTTTTGAAATTATAGATCCGTATTGAGTCGGTTTCGGAGTCACCTAGTGCAG”, the binding signal is 9440 fluorescence intensity (a.u.).

For the sequence “AAAGTTACCTAGTTGCATTCTAGTACCATCCACATATTTTCGGAGTCACCTAGTGCAG”, the binding signal is 9500 fluorescence intensity (a.u.).

In the case of “GCGGGCTGTTTTTTTCTTGCGGTTTGGTTTGGGATTTCTGCGGAGTCACCTAGTGCAG”, the binding signal is 17400 fluorescence intensity (a.u.).

Take “TTTATTGGCCCCTTGCTCTCTGCTGCCTTTATCATCACCACGGAGTCACCTAGTGCAG”: the binding signal was 8120 fluorescence intensity (a.u.).

For “AGCAGGTTCTACCGAAATGATTTACAATTTTGGCCGTGTTCGGAGTCACCTAGTGCAG”, the binding signal is 8320 fluorescence intensity (a.u.).

As to “ATTCCGTGCTCACCTGAACCGCTGAACGAATATGCGCATACGGAGTCACCTAGTGCAG”, the binding signal was 9300 fluorescence intensity (a.u.).

Consider “TAACTTATTTGGGGCATGTAATCAGTGCTGCTGGGGTATCCGGAGTCACCTAGTGCAG”, for which the binding signal was 8850 fluorescence intensity (a.u.).

“CCTTTTTGTCCTGTTATAAAATTCACTGCCTGAATTCAGACGGAGTCACCTAGTGCAG”: the binding signal was 8280 fluorescence intensity (a.u.).

For the sequence “GCTATCTCCATCGTCTCTTTCCTTGACCACAGCGGCAATGCGGAGTCACCTAGTGCAG”, the binding signal is 9860 fluorescence intensity (a.u.).

“AAGGTTGTCCTGTATATCCTCTCGAGGTCTTGATTAGCTTCGGAGTCACCTAGTGCAG”: the binding signal was 9560 fluorescence intensity (a.u.).

For the sequence “ACCGCGTCTACTCCACAGAGCTCTTCTTCTTCCACGCGCCCGGAGTCACCTAGTGCAG”, the binding signal is 10000 fluorescence intensity (a.u.).

As for “TAAATTATTTTTCGTTTGTAAATACACTGTTTCGCTTATTCGGAGTCACCTAGTGCAG”, the binding signal was 10200 fluorescence intensity (a.u.).

Take “TATCTTGGTCTGGTCACTTTTATAATGTTTGGGTGCGTTTCGGAGTCACCTAGTGCAG”: the binding signal is 9910 fluorescence intensity (a.u.).

Consider “AATCACTTCCGTACTTTTTTTTCTATAGTGGCCTTTTACACGGAGTCACCTAGTGCAG”, for which the binding signal is 13000 fluorescence intensity (a.u.).

For the sequence “AGACATTCTCCATTTTCTTTCTTCTCTTCACTCACACTCACGGAGTCACCTAGTGCAG”, the binding signal is 8800 fluorescence intensity (a.u.).

Regarding “ATGAGCGGGTCGTGTGTTCGTGTCCACCCCTATCCCCTCACGGAGTCACCTAGTGCAG”, the binding signal was 9130 fluorescence intensity (a.u.).

Regarding “TACCCTTATATGTCAAAGGGGTGGCCTTGTTCTATATGTTCGGAGTCACCTAGTGCAG”, the binding signal was 8240 fluorescence intensity (a.u.).

Regarding “CTCAGCTTAGGCGATTGCTTCTCATGGGTGTTTCATCCTTCGGAGTCACCTAGTGCAG”, the binding signal was 8540 fluorescence intensity (a.u.).

In the case of “GTGTTCTGCGTTCTTATGTACAGGGCCTCTACAAACTGCACGGAGTCACCTAGTGCAG”, the binding signal is 10600 fluorescence intensity (a.u.).

Turning to “CACTTACAAAACAGCACTGTCACTTCTCTCTCTCTCTCTCCGGAGTCACCTAGTGCAG”, the binding signal is 9050 fluorescence intensity (a.u.).

For “GGATACCGCCCACAATACTGCCTTCGGAGTCGATTTGTACCGGAGTCACCTAGTGCAG”, the binding signal was 8620 fluorescence intensity (a.u.).

For “GTGGGCCAATTCTGCAATCATCCACACAATCAGCCATCAACGGAGTCACCTAGTGCAG”, the binding signal is 8180 fluorescence intensity (a.u.).

For the sequence “GGGTTTCGCGGATCGAGGGGCGCCGCGGCTAGGGTTTGGGCGGAGTCACCTAGTGCAG”, the binding signal is 9080 fluorescence intensity (a.u.).

On to “GTCTTTACCATGTCATCGTCCTTTATTTCTAAATGAAATTCGGAGTCACCTAGTGCAG”, for which the binding signal was 10300 fluorescence intensity (a.u.).

For “AAAATTTCCGTACCGTTTTCACCCTTAATTCCTTCCCGTTCGGAGTCACCTAGTGCAG”, the binding signal is 13400 fluorescence intensity (a.u.).

On to “TGCTTGTTCCGGTTCCTTCCCAACCCTTTTGCAAGAACACCGGAGTCACCTAGTGCAG”, for which the binding signal was 9120 fluorescence intensity (a.u.).

In the case of “AATGGTTTGGATCTTTAAATATGCTGGGAGTTTAATTATACGGAGTCACCTAGTGCAG”, the binding signal is 9250 fluorescence intensity (a.u.).

“CTTGTGTGGGTGGTACTATTTGTGCTTGCTATAGCACAACCGGAGTCACCTAGTGCAG”: the binding signal is 10700 fluorescence intensity (a.u.).

For “CACACCATTTCCTTTTTCTTTAGAAAATATCACACTATCACGGAGTCACCTAGTGCAG”, the binding signal is 9060 fluorescence intensity (a.u.).

With “TTCCCGCCCTTTTCCCCTATATATATCGCTCGCCTCGGAGCGGAGTCACCTAGTGCAG”, the binding signal was 8640 fluorescence intensity (a.u.).

With “CCCCGCGTCATTACTTCGTCTTCATCGCTGCCTTCCATGCCGGAGTCACCTAGTGCAG”, the binding signal was 8300 fluorescence intensity (a.u.).

On to “CCTCTCCTTCCATTGATCCTTTCACATCCTTTAATTTCTCCGGAGTCACCTAGTGCAG”, for which the binding signal is 10800 fluorescence intensity (a.u.).

The values are drawn from article PMC7819943, “Rice protein-binding microarrays: a tool to detect cis-acting elements near promoter regions in rice”.
